Out of some 400,000 compounds screened, about 5,500 (1.4%) were called active. The inconclusive results got no clear call from the source; some entries with a clear call stand among them for comparison. Calls follow the shape of the dose curve; as a rule, active = well fitted cell-killing curve with a large enough effect; inconclusive = small, poorly fitted or top-dose-only effect, or effect the other way; inactive = flat fitted curve, though single readings scatter. A potency beside an inconclusive call is a rough fit, not a confirmed value.
Experiment: qHTS assay for MDR1-selective chemotherapeutics: Primary screen using the parental adenocarcinoma cell KB-3-1; also: nearly all actives have a fitted effect of over 60% in size
Details: KB-3-1 viability, CellTiter-Glo ATP luminescence, 72 h; series mostly up to 46.1 µM
In short: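 Here the drug-naive KB-3-1 line serves as comparator for MDR sub-line selectivity; cells received compound titrations, 72 h at 37 °C, then CellTiter-Glo readout.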
In the case of COc1cccc(N2CCN(c3ncnc4c3nc3n4CCCCC3)CC2)c1, the Potency is reported as active: 16.4 µM.
In the case of COC(=O)c1c(C)oc2ccc(N(C(C)=O)S(=O)(=O)c3ccccc3)cc12, the Potency is reported as active: 23.1 µM.
With Cc1c(O)ccc(/C(Cc2ccc3ccccc3n2)=N\N)c1O the Potency was inconclusive: 20.6 µM [cytotoxic, single point].
With Cn1c(=O)n(C)c2cc(C(=O)Nc3ccc4c(c3)OCO4)ccc21 the Potency was inconclusive: 18.4 µM [cytotoxic, single point].
With O=[N+]([O-])c1ccc(-[n+]2nc(-c3ccccc3)nn2-c2ccccc2)cc1 the Potency was inconclusive: 14.6 µM [cytotoxic, partial curve, poor fit].
For COc1cc(/C=N/Nc2nc(Nc3ccccc3)nc(-n3nc(C)cc3C)n2)cc(OC)c1OC, the Potency was inconclusive: 29.1 µM [cytotoxic, single point].
For O=C(O)CCCCCNc1ccc2nsnc2c1[N+](=O)[O-], the Potency was “inactive”.
For COc1ccc(CC(=O)Nc2sc3c(c2C(=O)Nc2cccc(Cl)c2)CCCCC3)cc1, the Potency was inconclusive: 29.1 µM [cytotoxic, single point].
With CN(C(=O)COC(=O)c1ccc(Br)c(S(=O)(=O)N2CCOCC2)c1)C1CCCCC1 the Potency was “inactive”.
In the case of C[n+]1ccc(/C=C/c2c[nH]c3ccc(F)cc23)cc1, the Potency is reported as active: 8.2 µM.
In the case of C/C(=N\NC(=O)c1c(Cl)c(C)nn1C)c1ccc(NC(=O)C2CCC2)cc1, the Potency is reported as active: 1.03 µM.
In the case of CCOc1cc(CN2CCC(CO)(Cc3cccc(C(F)(F)F)c3)CC2)ccc1OC, the Potency is reported as active: 25.9 µM.
In the case of CCOc1ccccc1NC(=O)c1ccccc1-c1ccccc1, the Potency is reported as “inactive”.
For COc1ccc(S(=O)(=O)N2CCCCC2)cc1NC(=O)c1ccc([N+](=O)[O-])o1, the Potency was active: 18.4 µM.
In the case of C=CCn1c(O)c(N=NC(=S)Nc2cccc(OC)c2)c2ccccc21, the Potency is reported as active: 2.31 µM.
In the case of CC(C)(c1ccccc1)c1ccc(OCCCNCCO)cc1, the Potency is reported as inconclusive: 23.1 µM [cytotoxic, single point].
For COc1cc(C(=O)Nc2sc3c(c2C#N)CCN(C(C)=O)C3)cc(OC)c1OC, the Potency was inconclusive: 25.9 µM [cytotoxic, single point].
For COc1ccc(NC2CCCN(Cc3cccc4cnccc34)C2)cc1 (centres undefined), the Potency was “inactive”.
For CC1=NN(C(N)=S)C(=O)C1N=Nc1ccc(Cl)cc1 (centres undefined), the Potency was inconclusive: 18.4 µM [cytotoxic, single point].
With CC1(C)CC(NC(=O)c2cc([N+](=O)[O-])cc([N+](=O)[O-])c2)CC(C)(C)N1 the Potency was inconclusive: 29.1 µM [cytotoxic, single point].
For CCc1ccc(NCc2cc3ccc(OC)cc3n(CC(=O)Nc3ccc(F)cc3F)c2=O)cc1, the Potency was inconclusive: 16.4 µM [cytotoxic, single point].
With CCCCC(=O)Nc1nc(C)c(-c2csc(Nc3ccc(Cl)cc3)n2)s1 the Potency was inconclusive: 20.6 µM [cytotoxic, partial curve].
In the case of C=CCC[C@H](Cc1ccc(F)cc1)C(=O)OC[C@H](Cc1c[nH]c2ccccc12)NC(=O)[C@H](CC=C)CC(=O)N[C@H](CO)Cc1ccccc1, the Potency is reported as “inactive”.
For CCCCCc1c(-c2cccc(F)c2)ncn1CCc1ccccc1OC, the Potency was inconclusive: 23.1 µM [cytotoxic, single point].
In the case of COc1cccc(CNCCSc2nnnn2C)c1OCc1ccccc1Cl, the Potency is reported as inconclusive: 23.1 µM [cytotoxic, partial curve, poor fit].
In the case of O=C(Nc1ccc(Cl)c(Cl)c1)C1CC(=O)N(c2ccc(Br)cc2)C1 (centres undefined), the Potency is reported as “inactive”.
In the case of S=c1[nH]nc(-c2cccnc2)n1/N=C/C(Cl)=C\c1ccccc1, the Potency is reported as inconclusive: 4.11 µM [rising, full curve, poor fit].
In the case of O=C(O)C1=C(C2CCCCC2)C(=O)c2ccccc21, the Potency is reported as “inactive”.
In the case of CC(C)(CNC(=O)c1ccc([N+](=O)[O-])c(Cl)c1)CNC(=O)c1ccc([N+](=O)[O-])c(Cl)c1, the Potency is reported as inconclusive: 23.1 µM [cytotoxic, partial curve, poor fit].
In the case of CN(C)S(=O)(=O)c1ccc(C(=O)Nc2nnc(Cc3ccccc3)s2)cc1, the Potency is reported as “inactive”.
In the case of CN(C(=O)CSc1nnc(COc2ccccc2F)n1N)C1CCCCC1, the Potency is reported as “inactive”.
With Cc1cc(Cl)ccc1OCC(=O)Nc1c(Cl)ccc2nsnc12 the Potency was inconclusive: 8.2 µM [cytotoxic, partial curve].
With C/C=C/c1ccc2c(c1)O[C@H](CN(C)CC1CCOCC1)[C@@H](C)CN([C@H](C)CO)S2(=O)=O the Potency was “inactive”.
In the case of C=CC(=O)N1C/C(=C/c2ccc(F)cc2)C(=O)/C(=C\c2ccc(F)cc2)C1, the Potency is reported as inconclusive: 2.06 µM [cytotoxic, full curve, poor fit].
In the case of CC(C)(C)c1nnc(N/N=C/c2cc(Br)ccc2O)n(N)c1=O, the Potency is reported as inconclusive: 20.6 µM [cytotoxic, single point].
For C=CCNC(=O)c1cc2c(=O)c3ccccc3oc2nc1C, the Potency was inconclusive: 0.326 µM [rising, full curve, poor fit].
For CC(=O)c1ccc(NC(=O)Nc2ccc(NS(=O)(=O)c3ccc(C)cc3)cc2)cc1, the Potency was inconclusive: 18.4 µM [cytotoxic, single point].
In the case of COc1ccc2c(c1)CN(C)S(=O)(=O)c1ccccc1-2, the Potency is reported as inconclusive: 4.11 µM [rising, full curve].
With Cc1nn(CC(=O)Nc2nnc(CC(=O)N3CCCC3)s2)c(=O)c2ccccc12 the Potency was inconclusive: 29.1 µM [rising, single point].
In the case of Cc1cccc(N(C)C(=O)c2coc(=O)c3ccccc23)c1, the Potency is reported as “inactive”.
For Cc1ccc(S(=O)(=O)N(C)C)cc1NC(=O)CN1C(=O)NC(Cc2c[nH]c3ccccc23)C1=O (centres undefined), the Potency was inconclusive: 4.11 µM [cytotoxic, full curve, poor fit].
In the case of CN(C(=O)c1ccc(NC(=O)Cc2cccc(NC(=O)C3CCCN(C(=O)C4CCC4)C3)c2)cc1)C1CC1 (centres undefined), the Potency is reported as “inactive”.
For CCCCC[C@H]1CN(C2CCCCC2)C(=O)[C@@H]1CC(=O)NCc1ccccc1, the Potency was inconclusive: 18.4 µM [cytotoxic, single point].
For O=C1N[C@@H](Cc2c[nH]c3ccccc23)COC(=O)[C@@H](Cc2ccc(F)cc2)C/C=C\C[C@H]1CC(=O)N(CCO)Cc1ccccc1, the Potency was inconclusive: 29.1 µM [cytotoxic, single point].

From PubChem BioAssay AID1347075 (National Center for Advancing Translational Sciences (NCATS), 2019)
Potency is read from the fitted curve at half-maximal effect.
